# Library screening results

By UniProt entry, the sequences of proteins in these tests, tags left out.
UniProt E9BF75, entry or part of it: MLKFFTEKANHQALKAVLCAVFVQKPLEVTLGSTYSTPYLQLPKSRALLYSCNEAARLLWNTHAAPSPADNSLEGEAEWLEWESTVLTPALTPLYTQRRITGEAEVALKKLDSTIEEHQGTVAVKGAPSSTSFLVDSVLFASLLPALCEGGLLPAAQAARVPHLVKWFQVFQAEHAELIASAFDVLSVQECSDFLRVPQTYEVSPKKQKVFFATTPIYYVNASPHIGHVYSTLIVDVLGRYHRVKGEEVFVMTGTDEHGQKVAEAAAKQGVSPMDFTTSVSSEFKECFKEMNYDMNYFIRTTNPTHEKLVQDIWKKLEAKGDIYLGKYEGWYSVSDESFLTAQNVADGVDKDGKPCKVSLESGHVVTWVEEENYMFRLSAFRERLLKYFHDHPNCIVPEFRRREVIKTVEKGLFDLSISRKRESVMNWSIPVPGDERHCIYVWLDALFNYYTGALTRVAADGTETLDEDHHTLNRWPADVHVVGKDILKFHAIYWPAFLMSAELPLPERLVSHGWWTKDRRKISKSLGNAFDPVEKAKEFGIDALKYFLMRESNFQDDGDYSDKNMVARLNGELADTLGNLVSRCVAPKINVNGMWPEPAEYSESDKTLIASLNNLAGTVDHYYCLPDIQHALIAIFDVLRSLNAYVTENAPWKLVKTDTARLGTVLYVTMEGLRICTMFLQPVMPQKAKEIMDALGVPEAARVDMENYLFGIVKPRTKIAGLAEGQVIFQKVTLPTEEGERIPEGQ

All values are in %.
The controls that fix the scale are not given in the record; negative values are as filed.
The compounds are a random part of those screened.

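Methionyl-tRNA synthetase (putative), Leishmania donovani (UniProt E9BF75). Primary screen of methionyl-tRNA synthetase; the read-out is not stated. The test concentration is not given. The values are filed as inhibition. About 68,000 compounds were tested under these conditions; 0.035% (about 24) showed 50% or more at least once.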

{"structure": "COc1ccc(Oc2cc(CN)ccn2)cc1", "inhibition": 15.48}
{"structure": "O=C(CCc1nc(C2CC2)no1)c1ccc(F)c(F)c1", "inhibition": 13.24}
{"structure": "Cc1cc(C2CCC2)nc(N2CC(n3cccn3)C2)n1", "inhibition": 10.99}
{"structure": "CC(C)(CNc1ccc(S(=O)(=O)C(F)F)cc1)N1CCOCC1", "inhibition": 0.8523}
{"structure": "Cc1noc(C)c1CN1C[C@H](OCC(=O)N(C)C)[C@H]2COC[C@H]21", "inhibition": 3.65}
{"structure": "Cc1ccccc1CN1CCN(C(=O)CCn2ccccc2=O)CC1", "inhibition": 3.733}
{"structure": "CC(C)CN1C(=O)CO[C@@H]2CN(C(=O)C3CCOC3)C[C@H]21", "stereo": "some centres not stated", "inhibition": -222.5}
{"structure": "O=C(NCCN1CCCC1)c1cc2c(s1)CCN2C(=O)c1ccccc1", "inhibition": -0.274}
{"structure": "Clc1ccc2cccnc2c1CN1CCCC1Cn1cncn1", "stereo": "configuration not stated", "inhibition": 14.29}
{"structure": "Cc1cnc(-c2nc(O)c3c(n2)CN(C(=O)CC2CCCC2)CC3)cn1", "inhibition": 10.76}
{"structure": "CC1CC(=O)c2cc(C(=O)N3CCc4ccccc43)c(=O)[nH]c2C1", "stereo": "configuration not stated", "inhibition": 19.83}
{"structure": "CC(C)CN1C[C@@H]2C(=O)NC3(CCN(C(=O)c4cccnc4)CC3)[C@@H]2C1", "inhibition": 11.11}
{"structure": "Cc1ccc(C(CNC(=O)Cc2nc3ncccn3n2)N(C)C)cc1", "stereo": "configuration not stated", "inhibition": 13.54}
{"structure": "CN1C[C@@H](N)C[C@H]1C(=O)N1CCC(CCCc2ccccc2)CC1", "inhibition": 23.99}
{"structure": "COc1ccnc(N(C)Cc2ccco2)n1", "inhibition": -0.3484}
{"structure": "c1cc(C2CN(C3CCCC3)C2)n[nH]1", "inhibition": 15.58}
{"structure": "CCOCc1cnc2n1CCN(Cc1nc(C)cs1)C2C", "stereo": "configuration not stated", "inhibition": 12.41}
{"structure": "CN(C)CC(=O)N1Cc2nnn(C)c2C(COCC2CC2)C1", "stereo": "configuration not stated", "inhibition": 15.69}
{"structure": "CC(C)CN1C(=O)C2(CCCC2)NC1c1c[nH]nc1-c1cccnc1", "stereo": "configuration not stated", "inhibition": 3.846}
{"structure": "Cc1[nH]c2ccccc2c1-c1ccnc(N[C@H](CO)CC(C)C)n1", "inhibition": 19.17}
{"structure": "O=C1C[C@H]2CC[C@@H](CN1)N2C1CSCCSC1", "inhibition": 0}
{"structure": "O=C(c1cccnc1)N1C[C@@H](c2ccccc2)[C@@]2(CCNC2=O)C1", "inhibition": 12.68}
{"structure": "N#Cc1ccccc1CN(CC(N)=O)C1CCCC1", "inhibition": 12.98}
{"structure": "O=C(NC1CC1)C1(Cc2cc(-c3ccc(F)cc3F)no2)CCOCC1", "inhibition": 7.812}
{"structure": "Cc1nccc(N2C[C@@H](CN3CCCC3)[C@@H](CO)C2)n1", "inhibition": 15.93}
{"structure": "CN(C)C(C(=O)N1CC(c2ccccn2)C1)c1ccc2c(c1)OCO2", "stereo": "configuration not stated", "inhibition": 9.61}
{"structure": "COC(=O)c1sc2cccc(F)c2c1CNC(=O)C1CC1", "inhibition": 5.645}
{"structure": "Cc1nc(-c2cc(C(=O)NCC(C)(C)CO)c3ccccn23)cs1", "inhibition": 8.014}
{"structure": "COc1ccc(S(=O)(=O)N2CCN(C)c3ncccc3C2)cc1", "inhibition": 11.73}
{"structure": "Cn1nccc1C(=O)N1CCN(C(=O)C2CC2)[C@@H]2CS(=O)(=O)C[C@@H]21", "inhibition": 13.41}
{"structure": "CCc1nccn1C1CCCN(C(=O)c2ccc(OC)c(OC)c2)C1", "stereo": "configuration not stated", "inhibition": 8.832}
{"structure": "CCc1oc(C(=O)N2CC[C@H]3CC[C@@H](C2)N3)cc1CN(CC)CC", "inhibition": 11.75}
{"structure": "COc1ccccc1Oc1ncccc1CNC(=O)[C@H](N)CC(C)(C)C", "inhibition": 23.6}
{"structure": "NC1(C(=O)NCC2CCCN(Cc3ccccc3F)C2)CCCC1", "stereo": "configuration not stated", "inhibition": 11.87}
{"structure": "Cc1cccc(CN2CCCC3(CCN(c4cccnc4)C3=O)C2)n1", "stereo": "configuration not stated", "inhibition": 12.59}
{"structure": "CN(C)c1ncc(NC(=O)c2cccc(Nc3cnn(C)c3)c2)cn1", "inhibition": 10.13}
{"structure": "CC(C)OCCCNC(=O)C1CCCN(c2ccc3nncn3n2)C1", "stereo": "configuration not stated", "inhibition": 9.48}
{"structure": "CN1CCN(C(=O)[C@H]2C[C@H]3[C@H](CCN3Cc3nccs3)O2)CC1", "inhibition": 10.58}
{"structure": "c1ccc(OCCCNCCn2cccn2)cc1", "inhibition": 18.75}
{"structure": "Cc1cnn(Cc2cccc(OCC(N)=O)c2)c1", "inhibition": 13.13}
{"structure": "C=C(C)COc1cccc(CNCc2nc3ccccc3c(=O)[nH]2)c1", "inhibition": 9.059}
{"structure": "c1cncc(C[C@H]2[C@H](N3CCOCC3)CCN2Cc2cccs2)c1", "inhibition": 14.01}
{"structure": "CN(C)C(C(=O)N1CCN(CCn2cccc2)CC1)c1ccc(F)cc1", "stereo": "configuration not stated", "inhibition": 10.64}
{"structure": "O=C(c1ccc(C(F)(F)F)nc1)N1CCCC(n2cncn2)C1", "stereo": "configuration not stated", "inhibition": 8.589}

Repeated from the top, 5 entries:

{"structure": "COc1ccc(Oc2cc(CN)ccn2)cc1", "inhibition": 15.48}
{"structure": "O=C(CCc1nc(C2CC2)no1)c1ccc(F)c(F)c1", "inhibition": 13.24}
{"structure": "Cc1cc(C2CCC2)nc(N2CC(n3cccn3)C2)n1", "inhibition": 10.99}
{"structure": "CC(C)(CNc1ccc(S(=O)(=O)C(F)F)cc1)N1CCOCC1", "inhibition": 0.8523}
{"structure": "Cc1noc(C)c1CN1C[C@H](OCC(=O)N(C)C)[C@H]2COC[C@H]21", "inhibition": 3.65}

Data taken from ChEMBL document CHEMBL3988442, “University of Dundee, Small-Polar-MMV Screening Library” (2021).